The assay concerns the target T1, holo-RslA 1-108 (Zn2+ bound N-terminal cytosolic domain of M. tuberculosis anti-σ^L factor RslA), N-term His-tag (Mycobacterium tuberculosis) (UniProt P9WJ67).
T1 sequence (chain, Zn2+ bound in 1,1 stoichiometry (holo, reduced; three free cysteines)): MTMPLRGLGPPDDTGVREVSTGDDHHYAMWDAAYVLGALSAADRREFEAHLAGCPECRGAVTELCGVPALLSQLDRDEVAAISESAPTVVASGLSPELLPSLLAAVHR
In words: SPR. (In general: In SPR one partner is held on a chip, and binding of the other changes the refractive index at the surface.)

No constants are given. Whether binding was seen depends on the method and setting. Some entries that bind do so weakly or less than the wild type. Sequences can lack the tags named with a protein.

B1: σ^L2 domain of M. tuberculosis σ^L (N-term His-tag σ^L 1-95) (other)
chain: MARVSGAAAAEAALMRALYDEHAAVLWRYALRLTGDAAQAEDVVQETLLRAWQHPEVIGDTARPARAWLFTVARNMIIDERRSARFRNVVGSTDQ
notes: range 1-95; not shown: N-terminal His-tag from pET-Duet1 MCS1
As to B1, the binding entry is “binds”.

Values taken from US20110021367A1 (INDIAN INSTITUTE OF SCIENCE, published 2011).
